Results are given in words; binding and its absence hold for the method and conditions named. In cells and extracts the contact can be indirect. Some entries that bind do so weakly or less than the wild type. Blank lines part the entries; values can stand above or below the substance they belong to.
Experiments:
[1] = target: PD-L1 in MDA231 cells (human) (UniProt Q9NZQ7); experiment: co-IP; MDA231 cells; told only as similar results to the reciprocal co-IP in 293T cells; no figure named
[2] = target: PD-L1-FLAG (Programmed cell death ligand 1) (human) (UniProt Q9NZQ7); experiment: co-IP; 293T cells cotransfected with PD-L1-FLAG and GP78-V5; 1X NP-40 lysis buffer, 500 ug lysate; IP with mouse V5 antibody on protein A/G agarose (GP78) or with M2 FLAG affinity gel (PD-L1); Western blot with anti-V5 and anti-FLAG
[3] = target: GP78 in MDA231 cells (human) (UniProt Q9UKV5); experiment: co-IP; MDA231 cells; told only as similar results to the reciprocal co-IP in 293T cells; no figure named
[4] = target: GP78-V5 (full-length human GP78, E3 ubiquitin ligase) (human) (UniProt Q9UKV5); experiment: co-IP; 293T cells cotransfected with PD-L1-FLAG and GP78-V5; 1X NP-40 lysis buffer, 500 ug lysate; IP with mouse V5 antibody on protein A/G agarose (GP78) or with M2 FLAG affinity gel (PD-L1); Western blot with anti-V5 and anti-FLAG

Amino acid sequences for entries named in this document (tags omitted). Residues count along the entry.
UniProt Q9NZQ7, residues 19-290: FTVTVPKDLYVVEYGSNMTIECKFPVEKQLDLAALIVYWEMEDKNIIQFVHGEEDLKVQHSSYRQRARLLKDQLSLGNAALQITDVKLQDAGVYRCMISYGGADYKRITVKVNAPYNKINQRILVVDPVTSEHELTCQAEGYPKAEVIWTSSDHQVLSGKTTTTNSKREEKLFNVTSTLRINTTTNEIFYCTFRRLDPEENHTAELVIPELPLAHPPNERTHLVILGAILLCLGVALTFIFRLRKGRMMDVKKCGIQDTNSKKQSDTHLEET
UniProt Q9UKV5: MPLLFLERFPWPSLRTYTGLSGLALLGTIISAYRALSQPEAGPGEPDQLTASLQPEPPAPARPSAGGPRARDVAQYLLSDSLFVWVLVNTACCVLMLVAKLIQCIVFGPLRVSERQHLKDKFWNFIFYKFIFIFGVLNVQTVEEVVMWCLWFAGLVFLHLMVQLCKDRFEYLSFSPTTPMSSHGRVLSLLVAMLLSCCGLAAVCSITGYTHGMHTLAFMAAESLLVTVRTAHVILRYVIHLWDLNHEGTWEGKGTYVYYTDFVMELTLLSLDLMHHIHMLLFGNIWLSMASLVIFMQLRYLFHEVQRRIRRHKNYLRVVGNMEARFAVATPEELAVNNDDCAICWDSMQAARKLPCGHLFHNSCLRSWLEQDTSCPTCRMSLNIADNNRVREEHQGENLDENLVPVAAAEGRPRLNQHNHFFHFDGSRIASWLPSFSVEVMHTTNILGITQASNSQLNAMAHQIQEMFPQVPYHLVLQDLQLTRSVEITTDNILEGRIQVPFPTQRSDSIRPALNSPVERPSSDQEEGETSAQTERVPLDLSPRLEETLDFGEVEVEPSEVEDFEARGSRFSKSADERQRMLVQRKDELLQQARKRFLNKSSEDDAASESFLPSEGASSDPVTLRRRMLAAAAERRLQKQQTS

- binding [1]: binds
Substance: GP78 in MDA231 cells (from UniProt Q9UKV5 1-643) (enzyme)

Substance: GP78-V5 (full-length human GP78, E3 ubiquitin ligase) (from UniProt Q9UKV5 1-643) (enzyme)
- binding [2]: binds

- binding [3]: binds
Substance: PD-L1 in MDA231 cells (from UniProt Q9NZQ7 19-290) (ligand)

Substance: PD-L1-FLAG (Programmed cell death ligand 1) (from UniProt Q9NZQ7 19-290)
- binding [4]: binds
